Laboratory results taken from publication PMC12135372.
Results are given in words; binding and its absence hold for the method and conditions named. Some entries that bind do so weakly or less than the wild type. For some assays here: Where a sequence is shown, tags or fusion partners need not be part of it.

B1: Danio rerio RTCB, untagged (subunit of Dr-tRNA-LC-FL) (enzyme, UniProt Q6NZS4 1-505)
chain: MSRSYNDELQYLDKIHKNCWRIKKGFVPNMLVEGVFYVNDPLEKLMFEELRNACRGGGFGGFLPAMKQIGNVAALPGIVHRSIGLPDVHSGYGFAIGNMAAFDMENPDAVVSPGGVGFDINCGVRLLRTNLDEGDVQPVKEQLAQSLFDHIPVGVGSKGVIPMGAKDLEEALEMGVDWSLREGYAWAEDKEHCEEYGRMLQADPNKVSSKAKKRGLPQLGTLGAGNHYAEIQVVDEIYNDYAAKKMGIDHKGQVCVMIHSGSRGLGHQVATDALVAMEKAMKRDRITVNDRQLACARITSEEGQDYLKGMAAAGNYAWVNRSSMTFLTRQAFSKVFSTTPDDLDMHVIYDVSHNIAKVEEHMVDGRQKTLLVHRKGSTRAFPPHHPLIPVDYQLTGQPVLIGGTMGTCSYVLTGTEQGMTETFGTTCHGAGRALSRAKSRRNLDFQDVLDKLADMGIAIRVASPKLVMEEAPESYKNVTDVVNTCHDAGISKKAIKLRPIAVIKG
B2: Danio rerio CGI99 (subunit of Dr-tRNA-LC, FL and TR forms) (protein, UniProt Q7ZUH1 1-242)
chain: MFRRKLTALEYHNPTGFDCKDETEFRNFIVWLEDQKIRHYKIEDRGNLRNIPSSDWPKYFEKYLQDVNCPFSVQERQETVDWLLGLAVRFEYGDNVEKYRNCKPVTETNDVQKSADPLINLDSNNPDFKAGVLALANLLKIQRHDDYLVMLKAIKILVQERLTPDAIAKASQAKEGLPVTLDKHILGFDTGDATLNEAAQVLRLLHIEELRELQTKINEAIVAVQAIIADPKTDHRLGKVGR
B3: Danio rerio DDX1 C terminus, residues 693-740 (subunit of Dr-tRNA-LC-TR) (domain or fragment, UniProt F1R2L8 693-740)
chain: RRATGGGLYKGHVDILAPTVQELANLEREAQTSFLHLGYLPNQLFKAF

How the values were obtained:
[1] = target: T1, Danio rerio DDX1, full length, His6-MBP fusion (subunit of Dr-tRNA-LC-FL) (Danio rerio) (UniProt F1R2L8); assay: co-expression and co-purification (Ni affinity chromatography, then gel filtration); all five subunits co-expressed in Sf9 cells; complex captured on a HisTrap column via His6-MBP-DDX1, tag removed with TEV, Superose 6 Increase gel filtration; 25 mM Hepes pH 7.5, 150 mM NaCl, 5% glycerol
T1 sequence: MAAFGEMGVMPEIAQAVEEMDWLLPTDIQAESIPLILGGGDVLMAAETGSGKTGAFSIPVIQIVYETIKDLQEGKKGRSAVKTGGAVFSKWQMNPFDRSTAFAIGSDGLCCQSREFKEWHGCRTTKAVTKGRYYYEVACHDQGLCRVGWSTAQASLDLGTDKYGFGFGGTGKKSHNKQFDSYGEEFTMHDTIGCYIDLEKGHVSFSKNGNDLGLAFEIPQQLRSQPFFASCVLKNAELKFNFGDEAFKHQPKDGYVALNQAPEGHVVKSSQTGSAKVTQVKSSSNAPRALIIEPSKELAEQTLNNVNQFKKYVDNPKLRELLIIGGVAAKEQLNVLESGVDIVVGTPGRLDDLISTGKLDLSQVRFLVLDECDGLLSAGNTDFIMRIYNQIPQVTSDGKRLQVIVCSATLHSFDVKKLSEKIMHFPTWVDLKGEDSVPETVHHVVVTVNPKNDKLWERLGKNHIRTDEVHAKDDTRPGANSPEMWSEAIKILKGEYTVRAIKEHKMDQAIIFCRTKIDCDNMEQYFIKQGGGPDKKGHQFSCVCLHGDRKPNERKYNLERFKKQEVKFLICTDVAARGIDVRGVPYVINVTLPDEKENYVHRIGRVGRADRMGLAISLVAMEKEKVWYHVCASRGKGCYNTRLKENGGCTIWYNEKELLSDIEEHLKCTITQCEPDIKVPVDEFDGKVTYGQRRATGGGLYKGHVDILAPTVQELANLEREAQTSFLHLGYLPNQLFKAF

[2] = target: T2, Danio rerio His6-RTCB (subunit of Dr-tRNA-LC-TR) (Danio rerio) (UniProt Q6NZS4); assay: cryo-EM structure; Dr-tRNA-LC-TR at 0.95 mg/ml with 2 mM MnCl2, 2 mM GTP and twofold molar excess of tRNAIle (RNA not seen in the map); 3.3 Å reconstruction, atomic model built; both purified
T2 sequence: B1 chain

[3] = target: T3, Danio rerio CGI99 (subunit of Dr-tRNA-LC, FL and TR forms) (Danio rerio) (UniProt Q7ZUH1); assay: as above
T3 sequence: B2 chain

| Binder | binding [1] | binding [2] | binding [3] |
| --- | --- | --- | --- |
| B1 | binds |  |  |
| B2 | binds | binds |  |
| B3 |  | binds | binds |
